Data source: PubChem BioAssay AID1224830 (NIAID, 2016)
Here is one part, drawn at random, of about 18,000 reagents tested. About 2,900 of all reagents (16%) count as active. 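Calls are made per well; low scores hint the gene aids the LPS response, high scores that it dampens it.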 Entries without a mark were called inactive. Repeated entries: four replicate wells of each siRNA pool.

- Aim: 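Regulators of TLR4 signalling towards TNF-alpha in macrophage-like cells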 (primary screen)
- System: human THP-1 monocytic leukaemia cells, TNF dual-luciferase reporter clone, PMA-differentiated to macrophage-like cells
- Reagent: siRNA pool against human genes, 50 nM
- Duration: LPS for 4 h, given about 3 days after siRNA transfection
- Treatment: bacterial LPS (TLR4 ligand), 10 ng/ml
- Detection: 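Ratio of firefly to renilla light, scaled to the plate median and expressed as a robust z-score per replicate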
- Scale: TNF reporter robust z-score: higher = stronger TNF reporter response to LPS
- Call rule: 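Each well counts as active if its z-score is over 2.8 or under -1.5; controls are left without a call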

For IDO1 (indoleamine 2,3-dioxygenase 1), the values are TNF reporter robust z-score 1.09. With knock-down of IDO1 (indoleamine 2,3-dioxygenase 1), the screen gave TNF reporter robust z-score -0.02. After knock-down of IDO1 (indoleamine 2,3-dioxygenase 1), the screen gave TNF reporter robust z-score -0.85. With knock-down of IDO1 (indoleamine 2,3-dioxygenase 1), the screen gave TNF reporter robust z-score 0.02. For TAS2R39 (taste 2 receptor member 39) the deposit lists TNF reporter robust z-score 0.59. After knock-down of TAS2R39 (taste 2 receptor member 39) the results were TNF reporter robust z-score 1.4.

Against TAS2R39 (taste 2 receptor member 39) the deposit lists TNF reporter robust z-score 0.08. TAS2R39 (taste 2 receptor member 39) scored TNF reporter robust z-score 0.57. ASB14 (ankyrin repeat and SOCS box containing 14) showed TNF reporter robust z-score 5.43 (active). Against ASB14 (ankyrin repeat and SOCS box containing 14), the values are TNF reporter robust z-score 4.39 (active). For ASB14 (ankyrin repeat and SOCS box containing 14) the deposit lists TNF reporter robust z-score 5.41 (active). Depletion of ASB14 (ankyrin repeat and SOCS box containing 14) gave: TNF reporter robust z-score 4.12 (active).

MYOM1 (myomesin 1) gave TNF reporter robust z-score 0.41. After knock-down of MYOM1 (myomesin 1) the results were TNF reporter robust z-score -0.22. Against MYOM1 (myomesin 1), the entry reads TNF reporter robust z-score 0.22. After knock-down of MYOM1 (myomesin 1) the results were TNF reporter robust z-score -0.03. Depletion of FAM177B (family with sequence similarity 177 member B) gave: TNF reporter robust z-score -1.13. FAM177B (family with sequence similarity 177 member B) scored TNF reporter robust z-score -0.64.

Against FAM177B (family with sequence similarity 177 member B) the deposit lists TNF reporter robust z-score -0.33. FAM177B (family with sequence similarity 177 member B) showed TNF reporter robust z-score 0.19. CNPY3 (canopy FGF signaling regulator 3) gave TNF reporter robust z-score -0.47. Depletion of CNPY3 (canopy FGF signaling regulator 3) gave: TNF reporter robust z-score -1.03. Depletion of CNPY3 (canopy FGF signaling regulator 3) resulted in: TNF reporter robust z-score -0.72. For CNPY3 (canopy FGF signaling regulator 3), the entry reads TNF reporter robust z-score -0.55.

10 entries from above in another layout.
gene	TNF reporter robust z-score
TAS2R39 (taste 2 receptor member 39)	0.08
TAS2R39 (taste 2 receptor member 39)	0.57
ASB14 (ankyrin repeat and SOCS box containing 14)	5.43 (active)
ASB14 (ankyrin repeat and SOCS box containing 14)	4.39 (active)
ASB14 (ankyrin repeat and SOCS box containing 14)	5.41 (active)
ASB14 (ankyrin repeat and SOCS box containing 14)	4.12 (active)
MYOM1 (myomesin 1)	0.41
MYOM1 (myomesin 1)	-0.22
MYOM1 (myomesin 1)	0.22
MYOM1 (myomesin 1)	-0.03

The listing continues.
After knock-down of TSPAN3 (tetraspanin 3) the results were TNF reporter robust z-score 0.6. For TSPAN3 (tetraspanin 3) the deposit lists TNF reporter robust z-score 1.58. Knock-down of TSPAN3 (tetraspanin 3) came out at: TNF reporter robust z-score 0.15. TSPAN3 (tetraspanin 3) gave TNF reporter robust z-score 1.41. After knock-down of KIF5A (kinesin family member 5A) the results were TNF reporter robust z-score -0.85. For KIF5A (kinesin family member 5A), the entry reads TNF reporter robust z-score -0.73.

Against KIF5A (kinesin family member 5A) the deposit lists TNF reporter robust z-score -1.02. For KIF5A (kinesin family member 5A), the values are TNF reporter robust z-score -0.56. After knock-down of HOXA5 (homeobox A5), the record shows TNF reporter robust z-score 0.98. For HOXA5 (homeobox A5), the entry reads TNF reporter robust z-score 0.6. Knock-down of HOXA5 (homeobox A5) gave: TNF reporter robust z-score 0.95. HOXA5 (homeobox A5) showed TNF reporter robust z-score 1.31.

With knock-down of BSN (bassoon presynaptic cytomatrix protein), the screen gave TNF reporter robust z-score -0.06. BSN (bassoon presynaptic cytomatrix protein) gave TNF reporter robust z-score 1.3. BSN (bassoon presynaptic cytomatrix protein) gave TNF reporter robust z-score 0.11. Silencing of BSN (bassoon presynaptic cytomatrix protein) gave: TNF reporter robust z-score -0.25. Silencing of RRAGC (Ras related GTP binding C) resulted in: TNF reporter robust z-score 0.52. Knock-down of RRAGC (Ras related GTP binding C) came out at: TNF reporter robust z-score 0.66.

With knock-down of RRAGC (Ras related GTP binding C), the screen gave TNF reporter robust z-score 0.49. For RRAGC (Ras related GTP binding C) the deposit lists TNF reporter robust z-score 1.14. For PITPNC1 (phosphatidylinositol transfer protein cytoplasmic 1), the values are TNF reporter robust z-score 1.24. Silencing of PITPNC1 (phosphatidylinositol transfer protein cytoplasmic 1) came out at: TNF reporter robust z-score 1.4. After knock-down of PITPNC1 (phosphatidylinositol transfer protein cytoplasmic 1) the results were TNF reporter robust z-score 1.16. After knock-down of PITPNC1 (phosphatidylinositol transfer protein cytoplasmic 1), the screen gave TNF reporter robust z-score 1.59.

For CNOT2 (CCR4-NOT transcription complex subunit 2) the deposit lists TNF reporter robust z-score 1.8. Silencing of CNOT2 (CCR4-NOT transcription complex subunit 2) gave: TNF reporter robust z-score 0.49. Knock-down of CNOT2 (CCR4-NOT transcription complex subunit 2) resulted in: TNF reporter robust z-score 0.99. CNOT2 (CCR4-NOT transcription complex subunit 2) scored TNF reporter robust z-score 2.19. After knock-down of FRMD7 (FERM domain containing 7) the results were TNF reporter robust z-score -0.01. After knock-down of FRMD7 (FERM domain containing 7) the results were TNF reporter robust z-score -0.05.

FRMD7 (FERM domain containing 7) gave TNF reporter robust z-score -0.55. For CNOT1 (CCR4-NOT transcription complex subunit 1) the deposit lists TNF reporter robust z-score 0.45. For CNOT1 (CCR4-NOT transcription complex subunit 1) the deposit lists TNF reporter robust z-score -0.6. After knock-down of CNOT1 (CCR4-NOT transcription complex subunit 1), the record shows TNF reporter robust z-score 4.21 (active). Against CNOT1 (CCR4-NOT transcription complex subunit 1) the deposit lists TNF reporter robust z-score 0.69. CPT2 (carnitine palmitoyltransferase 2) showed TNF reporter robust z-score -0.65.

For CPT2 (carnitine palmitoyltransferase 2), the entry reads TNF reporter robust z-score -0.04. CPT2 (carnitine palmitoyltransferase 2) scored TNF reporter robust z-score 0.3. With knock-down of CPT2 (carnitine palmitoyltransferase 2), the screen gave TNF reporter robust z-score -0.97.
